Source: PMC5363040
Results are given in words; binding and its absence hold for the method and conditions named.

Target: TEX101 (testis-expressed sequence 101 protein), free soluble form in seminal plasma (human) (UniProt Q9BY14)
Assay: SEC; pooled pre-vasectomy seminal plasma (500 ug total protein) on TSKgel G3000SW, 0.1 M NaH2PO4-Na2HPO4, 0.15 M NaCl, pH 7.0, 1 mL/min; TEX101 in each fraction measured by ELISA with DOC-based treatment; size by molecular weight standards

binding: no binding
B1: TEX101 (testis-expressed sequence 101 protein), free soluble form in seminal plasma (protein, UniProt Q9BY14-1 26-222)
chain: LYCQKGLSMTVEADPANMFNWTTEEVETCDKGALCQETILIIKAGTETAILATKGCIPEGEEAITIVQHSSPPGLIVTSYSNYCEDSFCNDKDSLSQFWEFSETTASTVSTTLHCPTCVALGTCFSAPSLPCPNGTTRCYQGKLEITGGGIESSVEVKGCTAMIGCRLMSGILAVGPMFVREACPHQLLTQPRKTEN
